Measured values reported in paper PMC10553838, “Functional and structural insights into the multi-step activation and catalytic mechanism of bacterial ExoY nucleotidyl cyclase toxins bound to actin-profilin” (PLOS Pathogens, 2023).
No constants are given. Whether binding was seen depends on the method and setting. Binding can be weak; no strength is given.

Target: human profilin (human)
Test: crystal structure; VnE^DM-PRM-Prof with actin-ADP-LatB and VnE-PRM-Prof (SO4 2- bound) with actin-ADP; 1.7 Å; both purified

With PPPPP [short profilin-binding proline-rich motif (PRM) of the VnE-PRM-Prof chimera] the binding was “binds”.
